No constants are given. Whether binding was seen depends on the method and setting. Some entries that bind do so weakly or less than the wild type. Sequences can lack the tags named with a protein.
Experiments:
[1] = biological target: T1, Cathepsin G (Biodesign Int.) (UniProt P08311); assay: complex binding, 2 ug SCCA protein + 0.5 ug Cathepsin G, 37 C 30 min, SDS-PAGE
T1 sequence (looked up): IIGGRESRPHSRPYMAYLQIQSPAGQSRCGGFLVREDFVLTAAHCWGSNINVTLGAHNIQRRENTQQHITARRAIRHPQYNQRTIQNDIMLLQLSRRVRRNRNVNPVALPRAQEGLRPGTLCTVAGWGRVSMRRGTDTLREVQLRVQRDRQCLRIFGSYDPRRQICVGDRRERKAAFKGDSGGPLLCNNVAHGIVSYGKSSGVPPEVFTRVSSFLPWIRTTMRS

[2] = biological target: T1, Cathepsin G (Biodesign Int.); assay: complex binding, SDS-PAGE (FIG. 8)
[3] = biological target: T1, Cathepsin G (Biodesign Int.); assay: complex binding, SDS-PAGE

Measured: binding

B1: SCCA1/SCCA2 fusion protein (other)
chain: MNSLSEANTKFMFDLFQQFRKSKENNIFYSPISITSALGMVLLGAKDNTAQQIKKVLHFDQVTENTTGKAATYHVDRSGNVHHQFQKLLTEFNKSTDAYELKIANKLFGEKTYLFLQEYLDAIKKFYQTSVESVDFANAPEESRKKINSWVESQTNEKIKNLIPEGNIGSNTTLVLVNAIYFKGQWEKKFNKEDTKEEKFWPNKNTYKSIQMMRQYTSFHFASLEDVQAKVLEIPYKGKDLSMIVLLPNEIDGLQKLEEKLTAEKLMEWTSLQNMRETCVDLHLPRFKMEESYDLKDTLRTMGMVNIFNGDADLSGMTWSHGLSVSKVLHKAFVEVTEEGVEAAAATAVVVVELSSPSTNEEFCCNHPFLFFIRQNKTNSILFYGRFSSP
notes: Recombinant serpin fusion (exons 2-7 of SCCA1 fused to exon 8 of SCCA2); also called SCCA1/A2; SCCA1/A2 fusion protein
binds: all assays above

From patent US20070218463A1 (CANAG DIAGNOSTICS, published 2007)
